Reference: the supplement of paper PMC4635364
Structures can show the parent of a compound that is named as a salt. The list shows a part of the results. Repeats in this data set agree poorly, so a single value says little.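 ReNCell VM, a human fetal ventral-midbrain neural progenitor line, was differentiated without mitogens. Blinded raters scored images stained for doublecortin (early neurons) or tyrosine hydroxylase (dopaminergic neurons) against untreated wells (0 = no change). Scores were averaged across repeats and both raters, and compounds averaging 2 or more were selected as hits for retesting.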

What follows are compounds tested on ReNCell VM (assay: neuronal differentiation score (DCX+ cell fraction vs untreated, manual image score) (score (-3 to 3)); higher = more neuronal differentiation). Conditions: library: LOPAC; 2 uM; 2 weeks.

Compound	neuronal differentiation score
CC(C)NNC(=O)c1ccncc1 [Iproniazid phosphate]	inactive: 0
CC(C(=O)O)c1ccc(CC2CCCC2=O)cc1 (stereo unspecified) [loxoprofen]	inactive: 0
C[C@]12CCC(=O)C=C1CC[C@@H]1[C@@H]2[C@@H](O)C[C@@]2(C)[C@H]1CC[C@]2(O)C(=O)CO [Hydrocortisone]	inactive: 1
COc1cccc(OC)c1OCCNCC1COc2ccccc2O1 (stereo unspecified) [WB-4101 hydrochloride]	inactive: 0
Cc1cn[nH]c1 [4-Methylpyrazole hydrochloride]	inactive: 0
CCCCCC(O)c1cccc(OCc2ccc3ccccc3n2)c1 (stereo unspecified)	inactive: 0
Nc1ccc(-c2ccc3ccccc3n2)cc1 [BF-170 hydrochloride]	inactive: -3
CC(CN(C)C)CN1c2ccccc2CCc2ccccc21 (stereo unspecified) [Trimipramine maleate]	inactive: 0

Same assay, conditions: library: Natural; 2 uM; 2 weeks

Compound	neuronal differentiation score
O=c1c(O)c(Br)ccc2c(Br)c(O)c(O)c(O)c12 [3,6-dibromo-purpurogallin]	inactive: 0
CC1(C)CCCC2(C)C1CCC1(C)OC(=O)CC12 (stereo unspecified) [norambreinolide]	inactive: 0
COc1ccc(C=CC(=O)C=Cc2ccc(OC)cc2OC)c(OC)c1 [1,5-bis-(2,4-dimethoxy-phenyl)-penta-1,4-dien-3-one]	inactive: 0

Same assay, conditions: library: Prestwick; 2 uM; 2 weeks

Compound	neuronal differentiation score
CN(C)/N=N/c1[nH]cnc1C(N)=O [Dacarbazine]	inactive: 0
O=S(=O)(O)c1cc(O)ccc1O [Ethamsylate]	inactive: 0
CC(=O)OCC1=C(C(=O)O)N2C(=O)[C@@H](NC(=O)Cc3cccs3)[C@H]2SC1 [Cephalothin sodium salt]	inactive: 0
N[C@@H](Cc1cc(I)c(Oc2ccc(O)c(I)c2)c(I)c1)C(=O)O [Liothyronine]	inactive: 0
O=C(O)c1ccccc1OP(=O)(O)O [Fosfosal]	inactive: 0
CNC[C@H](O)[C@@H](O)[C@H](O)[C@H](O)CO [Meglumine]	inactive: 0
C#C[C@]1(O)CC[C@H]2[C@@H]3CCC4=CC(=O)CC[C@@H]4[C@H]3CC[C@@]21C [Norethindrone]	inactive: 0
COc1ccc(CCN(C)CCCC(C#N)(c2ccc(OC)c(OC)c2)C(C)C)cc1OC (stereo unspecified) [Verapamil hydrochloride]	inactive: 0

Same assay, conditions: library: Spectrum; 2 uM; 2 weeks

Compound	neuronal differentiation score
NNc1nncc2ccccc12	inactive: 0
CCCCCCCCCCCCCCCCCCOCC(O)CO (stereo unspecified)	inactive: 0
O=C(O)c1cc(=O)c(O)c2c(O)c(O)c(O)cc2c1	inactive: 0
CC(C)(S)[C@@H](N)C(=O)O	inactive: 0
CC[C@@H]1C(=O)OC[C@@H]1Cc1cncn1C	inactive: 0
O=C1c2c(O)cccc2Cc2cccc(O)c21	inactive: -1
CC(C)(C)NC[C@H](O)COc1cccc2c1CCCC2=O	inactive: 0
CN1C(C(=O)Nc2ccccn2)=C(O)c2sc(Cl)cc2S1(=O)=O	inactive: 0
CC(C[N+](C)(C)C)OC(N)=O (stereo unspecified)	inactive: 0
COC(=O)[C@@]1(C)CCC[C@]2(C)c3ccc(O)c(C(C)C)c3CCC12 (stereo partly specified)	inactive: 0
O=[N+]([O-])c1ccc(O)c2ncccc12	inactive: 0
c1ccc(CN(CC2=NCCN2)c2ccccc2)cc1	inactive: 0
O=C(CCc1ccc(O)cc1)c1c(O)cc(O)cc1O[C@@H]1OC(CO)[C@@H](O)[C@@H](O)C1O (stereo partly specified)	inactive: 0
CC(=O)O[C@H]1CC[C@]2(C)C3=C(CC[C@H]2C1(C)C)[C@]1(C)CC[C@H]([C@H](C)CCC=C(C)C)[C@@]1(C)CC3	inactive: 0
CCN(CC)Cc1cc(Nc2ccnc3cc(Cl)ccc23)ccc1O	inactive: 0
Cc1cc(C(C)(C)C)c(O)c(C(C)(C)C)c1	inactive: 0

Exported in markdown: 2 of the compounds above

| Compound | neuronal differentiation score |
| --- | --- |
| CC(C)(S)[C@@H](N)C(=O)O | inactive: 0 |
| COC(=O)[C@@]1(C)CCC[C@]2(C)c3ccc(O)c(C(C)C)c3CCC12 (stereo partly specified) | inactive: 0 |

Same assay, conditions: library: Tocriscreen; 2 uM; 2 weeks

Compound	neuronal differentiation score
CN(Cc1ccccc1)C(=O)[C@H](Cc1ccc2ccccc2c1)NC(=O)[C@@H]1CCCN1C(=O)Nc1ccccc1[N+](=O)[O-]	inactive: 0
CC(C)NC[C@H](O)COc1ccc(CC(N)=O)cc1 [S-(-)-Atenolol]	inactive: 0
CCCCn1c(=O)c2[nH]c(C34CC5CC(CC3C5)C4)nc2n(CCCO)c1=O	inactive: 0

The compounds below were run on ReNCell VM (assay: dopaminergic neuron differentiation score (TH+ cell fraction vs untreated, manual image score) (score (0 to 3)); higher = more TH+ dopaminergic neuron differentiation). Conditions: library: LOPAC; 2 uM; 4 weeks; BDNF 10 ng/ml + GDNF 10 ng/ml.

Compound	dopaminergic neuron differentiation score
CC(C)NNC(=O)c1ccncc1 [Iproniazid phosphate]	inactive: 0
CC(C(=O)O)c1ccc(CC2CCCC2=O)cc1 (stereo unspecified) [loxoprofen]	inactive: 0
C[C@]12CCC(=O)C=C1CC[C@@H]1[C@@H]2[C@@H](O)C[C@@]2(C)[C@H]1CC[C@]2(O)C(=O)CO [Hydrocortisone]	inactive: 0
COc1cccc(OC)c1OCCNCC1COc2ccccc2O1 (stereo unspecified) [WB-4101 hydrochloride]	inactive: 0
Cc1cn[nH]c1 [4-Methylpyrazole hydrochloride]	inactive: 0
CCCCCC(O)c1cccc(OCc2ccc3ccccc3n2)c1 (stereo unspecified)	inactive: 0
Nc1ccc(-c2ccc3ccccc3n2)cc1 [BF-170 hydrochloride]	inactive: 0
CC(CN(C)C)CN1c2ccccc2CCc2ccccc21 (stereo unspecified) [Trimipramine maleate]	inactive: 0

In another format: results already given

| Compound | dopaminergic neuron differentiation score |
| --- | --- |
| Cc1cn[nH]c1 [4-Methylpyrazole hydrochloride] | inactive: 0 |
| CCCCCC(O)c1cccc(OCc2ccc3ccccc3n2)c1 (stereo unspecified) | inactive: 0 |
| Nc1ccc(-c2ccc3ccccc3n2)cc1 [BF-170 hydrochloride] | inactive: 0 |
| CC(CN(C)C)CN1c2ccccc2CCc2ccccc21 (stereo unspecified) [Trimipramine maleate] | inactive: 0 |
